In this experiment the test system is Mycoplasma pneumoniae strain M129 (ATCC 29342). Briefly: Time-kill curves. The format is cell-based. Conditions: 72 h. Here is the method:
Mycoplasma pneumoniae strain M129 (ATCC 29342) was obtained from American Type Culture Collection (Manassas, VA, United States) and cultured at 37°C in the presence of 5% CO2 in the modified SP-4 liquid medium (pH 7.4) containing 2.1% (w/v) CM1166 mycoplasma broth base medium (Oxoid, Hants, United Kingdom), 20% (v/v) fetal bovine serum (FBS, Bioexplorer, CO, United States), 0.4% yeast extract (Oxoid), 0.55% (w/v) CMRL 1066 w/L-glutamine culture media powder (MyBioSource, San Diego, CA, United States), 1% D-glucose (Macklin) and 0.004% phenol red (Macklin). […] The solid medium is based on the above formula with the addition of 1% agar, and the characteristic fried egg-like colonies were used for experiments following incubation for 7 d on plates.
The tubes were incubated at 37°C in 5% CO2 for 72 h, and 200 µL of the culture was removed every 12 h for 10-fold serial dilutions. The diluted cultures were plated on plates for further culture and counted after 7 d. The experiment was repeated three times.

For `O=C(O)c1cn(C2CC2)c2cc(N3CCNCC3)c(F)cc2c1=O` [ciprofloxacin], where the note is “static time-kill”, the “concentration at which bactericidal effect was achieved” value is not below 8 × MIC. Besides, the “reduction of bacterial counts” value (≥ 8×MIC) was determined as 3.44 log10 CFU/mL.

Values taken from PMC11695783 (Frontiers in Pharmacology, 2024).
